Results from publication PMC10205598.
These are yes or no findings as the source states them, for the method shown. In cells and extracts the contact can be indirect. A result given as binding can be weak or reduced; the word gives no strength.

Target: MYCFAM172A (MYC-tagged version of the 371aa-long isoform of murine FAM172A, WT) (mouse)
Experiment: co-IP; N2a cells transfected with MYCFAM172A (WT or NLS-mutated; with HAFAM172A for self-association), MYC as bait; endogenous importins or HAFAM172A blotted; 100 mM NaCl lysis buffer, with or without 10 min crosslink with 0.75% formaldehyde before lysis; excess MYC peptide as specificity control

B1: endogenous importin-5 (protein, UniProt Q8BKC5 1-1097)
chain: MAAAAAEQQQFYLLLGNLLSPDNVVRKQAEETYENIPGRSKITFLLQAIRNTTAAEEARQMAAVLLRRLLSSAFDEVYPALPSDVQTAIKSELLMIIQMETQSSMRKKICDIAAELARNLIDEDGNNQWPEGLKFLFDSVSSQNMGLREAALHIFWNFPGIFGNQQQHYLDVIKRMLVQCMQDQEHPSIRTLSARATAAFILANEHNVALFKHFADLLPGFLQAVNDSCYQNDDSVLKSLVEIADTVPKYLRPHLEATLQLSLKLCGDTNLNNMQRQLALEVIVTLSETAAAMLRKHTSLIAQTIPQMLAMMVDLEEDEDWANADELEDDDFDSNAVAGESALDRMACGLGGKLVLPMIKEHIMQMLQNPDWKYRHAGLMALSAIGEGCHQQMEGILNEIVNFVLLFLQDPHPRVRYAACNAVGQMATDFAPGFQKKFHEKVIAALLQTMEDQGNQRVQAHAAAALINFTEDCPKSLLIPYLDNLVKHLHSIMVLKLQELIQKGTKLVLEQVVTSIASVADTAEEKFVPYYDLFMPSLKHIVENAVQKELRLLRGKTIECISLIGLAVGKEKFMQDASDVMQLLLKTQTDFNDMEDDDPQISYMISAWARMCKILGKEFQQYLPVVMGPLMKTASIKPEVALLDTQDMENMSDDDGWEFVNLGDQQSFGIKTAGLEEKSTACQMLVCYAKELKEGFVEYTEQVVKLMVPLLKFYFHDGVRVAAAESMPLLLECARVRGPEYLTQMWHFMCDALIKAIGTEPDSDVLSEIMHSFAKCIEVMGDGCLNNEHFEELGGILKAKLEEHFKNQELRQVKRQDEDYDEQVEESLQDEDDNDVYILTKVSDILHSIFSSYKEKVLPWFEQLLPLIVNLICPQRPWPDRQWGLCIFDDIVEHCSPASFKYAEYFISPMLQYVCDNSPEVRQAAAYGLGVMAQFGGDNYRPFCTDALPLLVRVIQAPEAKTKENVNATENCISAVGKIMKFKPDCVNVEEVLPHWLSWLPLHEDKEEAVQTFSYLCDLIESNHPIVLGPNNTNLPKIFSIIAEGEMHEAIKHEDPCAKRLANVVRQVQTSGGLWTECIAQLSPEQQAAIQELLNSA
binding: binds
